Earlier results in patent US5506359A, “Cocaine analogues and their use as cocaine drug therapies and therapeutic and imaging agents for neurodegenerative disorders” (priority 1993, dated 1996).
Read-outs that look alike come from different tables or passages of the source. The match of structure and compound is tentative.

Tests used:
[1] = tested on: binding sites for cocaine in brain tissue; settings: tested as the radiolabelled form, cited from earlier work
[2] = tested on: cocaine binding sites associated with the dopamine transporter; settings: tested as the radiolabelled form; cited from earlier work

COC(=O)[C@H]1[C@@H](OC(=O)c2ccccc2)C[C@@H]2CC[C@H]1N2C [(-)-cocaine]
Kd ([1]; read-out: K0.50, all brain regions studied): 300 nM | Kd ([1]; read-out: affinity of [^3 H]cocaine for sites, saturable binding): 10 to 1000 nM | dissociation from receptor [1]: dissociates rapidly | [^3 H]cocaine binding sites in postmortem Parkinson's diseased putamen [2]: Depletion
